According to PubChem BioAssay AID624297 (National Center for Advancing Translational Sciences (NCATS), 2012):
The campaign covered roughly 340,000 compounds. About 6,200 (1.8%) were called active. This list was built around the results that the source calls inconclusive (neither active nor inactive); the mix of calls is not that of the screen. Calls follow the shape of the dose curve; as a rule, active = well fitted activation curve with a large enough effect; inconclusive = small, poorly fitted or top-dose-only effect; inactive = no such curve, though single readings can be large or run the other way. Potencies beside an inconclusive call are fits to weak or partial responses and may not hold up.

Experiment: A quantitative high throughput screen for small molecules that induce DNA re-replication in SW480 colon adenocarcinoma cells. Also: nearly all actives have a fitted effect of over 55% in size. As to re-replication activation: % of control where 0% means no effect.
Details: Hoechst DNA content imaging, 48 h; re-replication activation: at 46.1 µM (top of the series) unless noted
Procedure, shortened: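 First, 250 cells per well were seeded. Next, compound or vehicle (23 nL) was pinned in, plates sat 48 hr at 37 C. Finally Hoechst was added for 40 min before fluorescence scanning.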
Potency is read from the fitted curve at half-maximal effect.

Structure (SMILES)	re-replication activation	Potency
COC(=O)c1ccc(SCC(=O)N2CCC(C)CC2)c([N+](=O)[O-])c1	inactive: -31.1%	
CC(C)c1c(C(=O)N/N=C/c2ccccc2OCc2c(F)cccc2Cl)nnn1-c1nonc1N		active: 9.2 µM
CCN(CC)CCCNC(=S)N1CCN(c2nc(-c3ccc(F)cc3)cs2)CC1		inconclusive: 20.6 µM [activator, single point]
COc1ccc(Nc2oc(-c3ccccc3Cl)nc2C#N)cc1		active: 10.3 µM
CC(NC(=O)CSC(=S)N1CCCC1)c1ccc(S(N)(=O)=O)cc1 (stereo not given)	inactive: -4.79%	
CCOC(=O)C1=C(c2ccccc2)OC(N)=C(C#N)C1c1ccncc1 (stereo not given)		inconclusive: 23.1 µM [activator, single point]
CCOCCn1ccc2c(OCC(=O)Nc3ccccc3F)cccc2c1=O	inactive: -1.8%	
COC(=O)C1=CN(c2ccc(OC)cc2)C=C(C(=O)OC)C1c1cccc(F)c1	inactive: 23.7%	
Cn1c(=O)c2c(ncn2CC(=O)Nc2nccs2)n(C)c1=O		inconclusive: 29.1 µM [activator, single point]
CN1CCN(C(=O)c2ccc3c(=O)n(Cc4ccc(Cl)cc4)c(=S)[nH]c3c2)CC1		inconclusive: 18.4 µM [activator, single point]
N#Cc1c(-c2cccnc2)cc(-c2ccccc2)nc1N		inconclusive: 0.13 µM [activator, full curve, poor fit]
OC(COCc1ccc(Cl)cc1)CN1CCN(CC(O)COCc2ccc(Cl)cc2)CC1 (stereo not given)		inconclusive: 23.1 µM [activator, single point]
CN(C)CCCn1c(-c2ccccc2)nc(=S)c2c1CCCC2		active: 3.26 µM
CCC(C)Sc1ccc(-c2nc3ccc(C)cn3c2NCc2ccccc2)cc1OC (stereo not given)		inconclusive: 20.6 µM [activator, partial curve, poor fit]
O=C1C2C3C=CC(CC3)C2C(=O)N1c1ccccc1[N+](=O)[O-] (stereo not given)		inconclusive: 23.1 µM [activator, single point]
Nc1nc(SCc2ccccc2[N+](=O)[O-])c2ncn(Cc3ccccc3)c2n1		inconclusive: 20.6 µM [activator, single point]
CC(=O)N1CCOc2ccc(S(=O)(=O)NCc3ccc(C)cc3)cc21		inconclusive: 29.1 µM [activator, single point]
Cc1ccc(/C=N/NC(=O)c2ccc(NC(=O)c3ccccc3Cl)cc2)o1	inactive: -0.271%	
O=C(NC(=S)NNC(=O)c1ccco1)c1ccccc1		inconclusive: 29.1 µM [activator, single point]
O=C(NCc1ccco1)c1noc2c1CCCCC2		inconclusive: 23.1 µM [activator, single point]

As entered above.
Entry of `OC(COCc1ccc(Cl)cc1)CN1CCN(CC(O)COCc2ccc(Cl)cc2)CC1` (stereo not given) under Potency: inconclusive: 23.1 µM [activator, single point]
Entry of `COC(=O)c1ccc(SCC(=O)N2CCC(C)CC2)c([N+](=O)[O-])c1` under re-replication activation: inactive: -31.1%
